Data reported in the supplement of paper PMC6411743.
± gives the standard deviation of the averaged measurements. The entries are a selection whose mix differs from that of the whole data set.

Experiments:
Test in all cases: NP40-soluble protein abundance relative to vehicle (solubility fold change) (ratio); higher = more soluble protein in presence of AMP-PNP
[1] = biological target: T1, A0A0C4DGS5|B7ZC06 and related entries (UniProt Q08379)
T1 sequence (whole entry): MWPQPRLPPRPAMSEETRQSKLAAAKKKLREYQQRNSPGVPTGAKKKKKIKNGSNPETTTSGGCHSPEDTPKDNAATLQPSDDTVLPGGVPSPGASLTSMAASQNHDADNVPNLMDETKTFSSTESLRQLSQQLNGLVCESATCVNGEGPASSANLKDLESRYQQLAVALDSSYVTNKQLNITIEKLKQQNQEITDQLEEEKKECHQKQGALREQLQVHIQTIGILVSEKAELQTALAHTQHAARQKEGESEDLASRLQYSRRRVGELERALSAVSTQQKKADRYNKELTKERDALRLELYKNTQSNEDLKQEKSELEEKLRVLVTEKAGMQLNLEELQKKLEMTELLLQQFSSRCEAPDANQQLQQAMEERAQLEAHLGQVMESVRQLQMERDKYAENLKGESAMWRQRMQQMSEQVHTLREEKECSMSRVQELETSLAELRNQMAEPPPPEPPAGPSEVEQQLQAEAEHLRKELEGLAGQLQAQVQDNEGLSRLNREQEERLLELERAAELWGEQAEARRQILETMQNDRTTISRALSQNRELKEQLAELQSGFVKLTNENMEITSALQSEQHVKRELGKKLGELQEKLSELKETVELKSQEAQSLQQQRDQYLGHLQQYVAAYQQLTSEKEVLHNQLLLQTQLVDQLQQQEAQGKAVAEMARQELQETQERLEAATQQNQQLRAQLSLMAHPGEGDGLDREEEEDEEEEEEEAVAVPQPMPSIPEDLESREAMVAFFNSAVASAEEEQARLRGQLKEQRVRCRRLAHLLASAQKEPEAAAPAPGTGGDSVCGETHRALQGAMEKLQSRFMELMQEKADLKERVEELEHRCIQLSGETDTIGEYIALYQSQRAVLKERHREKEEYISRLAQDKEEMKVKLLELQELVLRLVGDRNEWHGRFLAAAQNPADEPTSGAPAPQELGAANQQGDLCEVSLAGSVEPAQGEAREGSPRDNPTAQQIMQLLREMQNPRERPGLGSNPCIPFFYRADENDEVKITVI
Method in brief: (§1)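 Eight concentrations, 0.1 to 10 mM, were tested on Jurkat crude lysate for 10 min at room temperature and then 3 min at 37 °C, in three independent experiments. The lysate was solubilised with 0.8% NP40 and benzonase, ultracentrifuged, and the supernatant TMT-labelled for LC-MS/MS. Each value is the fold change against the detergent-processed vehicle in its own replicate, from vsn-normalised intensities.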

[2] = biological target: T2, A0A0J9YVP6|E9PQ56 and related entries (UniProt Q9UHX1)
T2 sequence (whole entry): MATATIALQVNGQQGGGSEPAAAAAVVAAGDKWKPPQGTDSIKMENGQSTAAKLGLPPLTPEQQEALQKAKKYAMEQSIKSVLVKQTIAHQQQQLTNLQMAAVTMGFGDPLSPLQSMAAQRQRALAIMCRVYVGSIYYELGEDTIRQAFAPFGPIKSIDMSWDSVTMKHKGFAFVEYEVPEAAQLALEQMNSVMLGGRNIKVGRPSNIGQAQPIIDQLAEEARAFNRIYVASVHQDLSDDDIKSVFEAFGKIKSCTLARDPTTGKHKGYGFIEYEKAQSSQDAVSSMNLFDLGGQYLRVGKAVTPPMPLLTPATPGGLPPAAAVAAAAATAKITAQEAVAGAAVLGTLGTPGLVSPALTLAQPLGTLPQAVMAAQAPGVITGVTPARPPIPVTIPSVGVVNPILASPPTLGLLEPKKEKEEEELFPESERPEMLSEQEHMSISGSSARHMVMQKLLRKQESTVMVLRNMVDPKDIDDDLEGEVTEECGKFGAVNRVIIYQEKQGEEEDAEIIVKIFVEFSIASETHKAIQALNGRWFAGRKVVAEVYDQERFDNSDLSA
Method in brief: as §1

A0A0J9YYJ0|Q8N129 = biological target: T3, A0A0J9YYJ0|Q8N129 (UniProt Q8N129)
T3 sequence (whole entry): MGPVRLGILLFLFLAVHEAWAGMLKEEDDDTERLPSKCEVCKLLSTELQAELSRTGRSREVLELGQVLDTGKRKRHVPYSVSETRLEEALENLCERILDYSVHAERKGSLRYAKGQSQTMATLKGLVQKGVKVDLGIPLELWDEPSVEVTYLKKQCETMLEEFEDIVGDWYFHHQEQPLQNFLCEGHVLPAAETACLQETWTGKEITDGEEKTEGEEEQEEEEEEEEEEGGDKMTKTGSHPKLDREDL
Method in brief: as §1

A0A0U1RRH6|O94880 = biological target: T4, A0A0U1RRH6|O94880 (UniProt O94880)
T4 sequence (whole entry): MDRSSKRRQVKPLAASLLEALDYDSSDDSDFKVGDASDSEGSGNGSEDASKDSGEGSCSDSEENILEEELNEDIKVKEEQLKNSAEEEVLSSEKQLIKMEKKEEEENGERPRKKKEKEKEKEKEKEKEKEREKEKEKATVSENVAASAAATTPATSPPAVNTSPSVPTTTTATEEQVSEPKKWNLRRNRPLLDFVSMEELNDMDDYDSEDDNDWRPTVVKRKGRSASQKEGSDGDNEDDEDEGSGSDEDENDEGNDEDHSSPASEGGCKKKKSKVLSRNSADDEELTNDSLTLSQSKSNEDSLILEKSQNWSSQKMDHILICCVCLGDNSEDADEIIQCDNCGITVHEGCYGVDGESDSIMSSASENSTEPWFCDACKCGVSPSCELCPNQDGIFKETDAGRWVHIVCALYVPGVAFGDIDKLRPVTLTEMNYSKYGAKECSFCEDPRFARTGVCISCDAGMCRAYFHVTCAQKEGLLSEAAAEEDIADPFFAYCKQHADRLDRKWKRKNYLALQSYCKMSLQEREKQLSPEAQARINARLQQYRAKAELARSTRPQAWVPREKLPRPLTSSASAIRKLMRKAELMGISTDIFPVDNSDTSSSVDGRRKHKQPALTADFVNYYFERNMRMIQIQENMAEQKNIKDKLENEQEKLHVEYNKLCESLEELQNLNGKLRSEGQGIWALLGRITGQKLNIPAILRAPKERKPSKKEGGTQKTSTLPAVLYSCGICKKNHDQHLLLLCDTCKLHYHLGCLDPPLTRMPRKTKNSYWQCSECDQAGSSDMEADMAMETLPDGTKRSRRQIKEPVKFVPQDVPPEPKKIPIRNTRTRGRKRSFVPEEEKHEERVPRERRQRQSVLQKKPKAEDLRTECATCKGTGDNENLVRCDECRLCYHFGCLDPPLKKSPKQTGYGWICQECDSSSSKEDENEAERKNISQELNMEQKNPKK
Method in brief: as §1

UHRF1BP1L = biological target: T5, UHRF1BP1L (UniProt A0JNW5)
T5 sequence (whole entry): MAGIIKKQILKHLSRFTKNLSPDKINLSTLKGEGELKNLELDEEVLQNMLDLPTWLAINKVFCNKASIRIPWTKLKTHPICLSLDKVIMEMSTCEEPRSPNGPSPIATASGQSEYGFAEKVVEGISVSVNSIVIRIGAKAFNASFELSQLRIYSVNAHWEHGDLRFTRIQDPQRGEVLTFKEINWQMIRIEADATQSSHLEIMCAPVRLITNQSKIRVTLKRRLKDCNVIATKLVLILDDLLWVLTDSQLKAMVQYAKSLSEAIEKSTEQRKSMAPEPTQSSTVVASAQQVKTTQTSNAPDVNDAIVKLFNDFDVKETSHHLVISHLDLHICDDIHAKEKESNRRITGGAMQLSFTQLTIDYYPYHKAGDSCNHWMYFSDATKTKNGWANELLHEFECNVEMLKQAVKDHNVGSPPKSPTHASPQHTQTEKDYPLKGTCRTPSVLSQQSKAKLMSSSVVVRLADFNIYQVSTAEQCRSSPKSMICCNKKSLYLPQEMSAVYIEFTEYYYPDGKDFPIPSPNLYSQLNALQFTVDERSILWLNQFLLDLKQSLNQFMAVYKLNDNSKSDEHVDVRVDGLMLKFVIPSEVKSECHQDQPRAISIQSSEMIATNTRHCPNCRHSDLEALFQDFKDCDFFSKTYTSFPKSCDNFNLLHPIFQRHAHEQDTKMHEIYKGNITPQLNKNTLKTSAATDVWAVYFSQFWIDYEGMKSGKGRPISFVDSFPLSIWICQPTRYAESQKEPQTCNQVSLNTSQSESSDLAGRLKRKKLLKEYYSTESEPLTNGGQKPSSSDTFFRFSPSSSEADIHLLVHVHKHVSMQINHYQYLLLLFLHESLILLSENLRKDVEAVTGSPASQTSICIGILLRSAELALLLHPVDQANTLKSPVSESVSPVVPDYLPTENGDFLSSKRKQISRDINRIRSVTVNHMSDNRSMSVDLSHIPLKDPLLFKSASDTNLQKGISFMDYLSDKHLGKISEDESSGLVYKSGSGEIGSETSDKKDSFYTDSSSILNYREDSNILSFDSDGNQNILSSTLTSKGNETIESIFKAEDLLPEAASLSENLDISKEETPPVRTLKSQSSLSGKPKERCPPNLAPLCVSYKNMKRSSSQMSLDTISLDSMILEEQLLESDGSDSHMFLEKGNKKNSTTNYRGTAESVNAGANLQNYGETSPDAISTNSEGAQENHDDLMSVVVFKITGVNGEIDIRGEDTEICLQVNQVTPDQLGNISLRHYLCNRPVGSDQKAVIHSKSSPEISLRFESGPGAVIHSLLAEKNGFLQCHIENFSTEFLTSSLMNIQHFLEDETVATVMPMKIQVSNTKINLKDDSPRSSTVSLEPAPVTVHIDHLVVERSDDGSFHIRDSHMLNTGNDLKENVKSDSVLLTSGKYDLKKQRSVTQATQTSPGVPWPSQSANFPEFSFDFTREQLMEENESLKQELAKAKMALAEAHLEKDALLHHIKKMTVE
Method in brief: as §1

SMILES: Nc1ncnc2c1ncn2[C@@H]1O[C@H](COP(=O)(O)OP(=O)(O)NP(=O)(O)O)[C@@H](O)[C@H]1O [adenylyl imidodiphosphate]
- NP40-soluble protein abundance ([1]; concentration: 6mM): 0.975 ± 0.017
- NP40-soluble protein abundance ([1]; concentration: 8mM): 0.9428 ± 0.0076
- NP40-soluble protein abundance ([1]; concentration: 10mM): 0.952 ± 0.028
- NP40-soluble protein abundance ([2]; concentration: 1mM): 1.02 ± 0.019
- NP40-soluble protein abundance ([2]; concentration: 2mM): 1.01 ± 0.032
- NP40-soluble protein abundance ([2]; concentration: 4mM): 1.03 ± 0.017
- NP40-soluble protein abundance ([2]; concentration: 6mM): 1.1 ± 0.027
- NP40-soluble protein abundance ([2]; concentration: 8mM): 1.14 ± 0.051
- NP40-soluble protein abundance ([2]; concentration: 10mM): 1.18 ± 0.037
- NP40-soluble protein abundance (A0A0J9YYJ0|Q8N129; concentration: 1mM): 1.03 ± 0.031
- NP40-soluble protein abundance (A0A0J9YYJ0|Q8N129; concentration: 2mM): 1.019 ± 0.0019
- NP40-soluble protein abundance (A0A0J9YYJ0|Q8N129; concentration: 4mM): 1.001 ± 0.0036
- NP40-soluble protein abundance (A0A0J9YYJ0|Q8N129; concentration: 6mM): 0.994 ± 0.023
- NP40-soluble protein abundance (A0A0J9YYJ0|Q8N129; concentration: 8mM): 0.9957 ± 0.0098
- NP40-soluble protein abundance (A0A0J9YYJ0|Q8N129; concentration: 10mM): 0.992 ± 0.012
- NP40-soluble protein abundance (A0A0U1RRH6|O94880; concentration: 1mM): 1.02 ± 0.036
- NP40-soluble protein abundance (A0A0U1RRH6|O94880; concentration: 2mM): 1.07 ± 0.03
- NP40-soluble protein abundance (A0A0U1RRH6|O94880; concentration: 4mM): 1.14 ± 0.025
- NP40-soluble protein abundance (A0A0U1RRH6|O94880; concentration: 6mM): 1.21 ± 0.017
- NP40-soluble protein abundance (A0A0U1RRH6|O94880; concentration: 8mM): 1.27 ± 0.035
- NP40-soluble protein abundance (A0A0U1RRH6|O94880; concentration: 10mM): 1.36 ± 0.092
- NP40-soluble protein abundance (UHRF1BP1L; concentration: 1mM): 1.02 ± 0.027
- NP40-soluble protein abundance (UHRF1BP1L; concentration: 2mM): 1.01 ± 0.037
- NP40-soluble protein abundance (UHRF1BP1L; concentration: 4mM): 1 ± 0.048
- NP40-soluble protein abundance (UHRF1BP1L; concentration: 6mM): 1 ± 0.056
- NP40-soluble protein abundance (UHRF1BP1L; concentration: 8mM): 0.98 ± 0.059
- NP40-soluble protein abundance (UHRF1BP1L; concentration: 10mM): 1 ± 0.079
